Results as given in PubChem BioAssay AID624297 (National Center for Advancing Translational Sciences (NCATS), 2012).
In all, about 340,000 compounds went through this assay and about 6,200 (1.8%) were called active. Inconclusive results, whose numbers are uncertain, are shown with a selection of clear calls. Calls follow the shape of the dose curve; as a rule, active = well fitted activation curve with a large enough effect; inconclusive = small, poorly fitted or top-dose-only effect; inactive = no such curve, though single readings can be large or run the other way. Potencies of inconclusive entries are doubtful fits and often do not repeat.

Assay: A quantitative high throughput screen for small molecules that induce DNA re-replication in SW480 colon adenocarcinoma cells. Also: nearly all actives have a fitted effect of over 55% in size. As to re-replication activation: % of control where 0% means no effect.
Settings: Hoechst DNA content imaging, 48 h; re-replication activation: at 46.1 µM (top of the series)
Summary of the method: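 First, 250 cells per well were seeded. Next, compound or vehicle (23 nL) was pinned in, plates sat 48 hr at 37 C. Finally Hoechst was added for 40 min before fluorescence scanning.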
Potency is read from the fitted curve at half-maximal effect.

Row | Compound | Potency | re-replication activation
1 | C/C(=N\N=C(N)N)c1ccc(Cl)c(Cl)c1 | inconclusive: 20.6 µM [activator, single point] | –
2 | CCOC(=O)Cn1c(=O)c2c(nc(Br)n2Cc2ccccc2Cl)n(C)c1=O | – | inactive: 11.9%
3 | CC(c1ccccc1)N(CC(=O)NC1CCCCC1)S(=O)(=O)c1cccc(C(F)(F)F)c1 (stereo not drawn) | inconclusive: 29.1 µM [activator, partial curve, poor fit] | –
4 | Clc1cccc(-c2ccc(CNCCCN3CCOCC3)o2)c1 | inconclusive: 29.1 µM [activator, single point] | –
5 | COc1ccc(-c2nc(NC(C)=O)sc2-c2ccccc2)cc1 | inconclusive: 29.1 µM [activator, single point] | –
6 | CCCC(O)(CCC)C(=O)NNc1ccc(C)cc1 | inconclusive: 16.4 µM [activator, single point] | –
7 | N=c1c2c(ncn1Cc1ccco1)Oc1c(ccc3ccccc13)C2c1ccccc1 (stereo not drawn) | inconclusive: 25.9 µM [activator, single point] | –
8 | Cc1sc2nc(CSc3nc4ccccc4c(=O)n3CCCN3CCOCC3)[nH]c(=O)c2c1C | inconclusive: 23.1 µM [activator, single point] | –
9 | Cc1ccc2nc3c(cc(C(=O)NCCN4CCOCC4)c(=N)n3CCCN3CCOCC3)c(=O)n2c1 | active: 1.84 µM | –
11 | CCOc1ccc(NC(=O)c2ccc(NC(=S)NC3CCCCC3)cc2)cc1 | inconclusive: 29.1 µM [activator, single point] | –
12 | CCN(CC)C(=O)[C@H]1CC(CC(=O)NCCCn2ccnc2)C(=O)N2CCc3c([nH]c4ccc(OC)cc34)[C@]12C (stereo partly drawn) | – | inactive: -7.95%
13 | CCOC(=O)c1ccc(NC(=O)c2nc[nH]c2C(=O)N[C@@H](Cc2ccccc2)C(=O)OC(C)(C)C)cc1 | inconclusive: 6.51 µM [activator, single point] | –
14 | CC(NC(=O)c1ccc(F)cc1)C(=O)NC1=NCCS1 (stereo not drawn) | active: 6.51 µM | –
15 | Cc1ccc(C(CNC(=O)Nc2cccc(C)c2)N2CCN(C)CC2)cc1 (stereo not drawn) | inconclusive: 25.9 µM [activator, partial curve, poor fit] | –
16 | Cc1ccc(C(=O)NC2CCN(CC(=O)NC3CCC(C)CC3)CC2)cc1 (stereo not drawn) | – | inactive: 8.83%
17 | N#Cc1c(-c2ccccc2)c(-c2ccccc2)nn(CC(=O)NNC(=O)Nc2ccc(Cl)cc2)c1=O | inconclusive: 18.4 µM [activator, single point] | –

Row | Compound | Potency | re-replication activation
18 | COc1ccc(Cn2nnc(C(=O)Nc3ccc4c(c3)OCCO4)c2N)cc1Br | inconclusive: 25.9 µM [activator, single point] | –
19 | COC(=O)c1ccccc1CC1Cc2cc3c(cc2C1=O)CCC3 (stereo not drawn) | inconclusive: 20.6 µM [activator, single point] | –
20 | NC(=O)c1cccc(CS(=O)(=O)c2ccc(Cl)cc2)c1 | inconclusive: 29.1 µM [activator, single point] | –
21 | CCOc1ccc(CCN2C(=O)C(=O)N([C@@H](CC(C)C)CN3CCC[C@@H]3CN3C(=O)C(=O)NC[C@@H]3Cc3ccccc3)C[C@@H]2CC(C)C)cc1 | inconclusive: 0.0052 µM [activator, full curve, poor fit] | –
22 | Cc1cccc(N(Cc2cc3ccc(C)cc3[nH]c2=O)S(=O)(=O)c2ccccc2)c1 | inconclusive: 23.1 µM [activator, single point] | –
23 | Cc1ccc(C)c(OCC(=O)NNC(=O)c2ccc(NC(=O)C3CC3)cc2)c1 | inconclusive: 6.51 µM [activator, single point] | –
24 | CC(=O)Nc1ccc(N/C=C/C(=O)c2ccc(C)cc2)cc1 | inconclusive: 29.1 µM [activator, single point] | –
25 | COCC(=O)N1C[C@H]2CON(C)[C@H]2C[C@H]1c1cccc(-c2ccc(C#N)cc2)c1 | – | inactive: 6.16%
26 | Cn1c(/C=N/Nc2nc3ccccc3[nH]2)nc2ccccc21 | inconclusive: 18.4 µM [activator, partial curve, poor fit] | –
27 | CCN(CC)CCn1c(NC(=O)c2ccc(C)cc2)nc2ccccc21 | – | inactive: 0.598%
28 | O=C(c1ccc2n[nH]nc2c1)N1CCN(c2ccc(C(F)(F)F)cn2)CC1 | inconclusive: 23.1 µM [activator, single point] | –
29 | NC(=O)c1ccccc1NC(=O)/C=C/c1c(Cl)cccc1Cl | inconclusive: 29.1 µM [activator, single point] | –
30 | Cc1cc(C)c(S(=O)(=O)N2CCCCC2CCNC(=O)C(=O)NCc2ccco2)c(C)c1 (stereo not drawn) | inconclusive: 22.4 µM [activator, single point] | –
31 | Cn1cc([N+](=O)[O-])c(C(=O)Nc2cnn(Cc3ccc(F)cc3)c2)n1 | inconclusive: 25.9 µM [activator, single point] | –
32 | CCOC(=O)c1sc(N2C(=O)C(O)=C(C(=O)c3ccco3)C2c2ccc([N+](=O)[O-])cc2)nc1C (stereo not drawn) | – | inactive: 4.24%
33 | COc1ccc(S(=O)(=O)N2CCc3ccccc32)cc1C(=O)Nc1cc(S(C)(=O)=O)ccc1Cl | inconclusive: 0.651 µM [activator, partial curve, poor fit] | –

Looked up by compound from the entries so far:
Row | Compound | Potency | re-replication activation
19 | COC(=O)c1ccccc1CC1Cc2cc3c(cc2C1=O)CCC3 (stereo not drawn) | inconclusive: 20.6 µM [activator, single point] | –
26 | Cn1c(/C=N/Nc2nc3ccccc3[nH]2)nc2ccccc21 | inconclusive: 18.4 µM [activator, partial curve, poor fit] | –
